The supplement of paper PMC8256030
Where “and” joins values, the source holds several entries; their conditions need not be identical. Equal entries are not always repeated. Structures can show the parent of a compound that is named as a salt. Some of the results follow. Single values are uncertain here, since repeats match poorly.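 HEK293T cells were given each compound shortly before transfection with a reporter in which red mCherry is followed by the SARS-CoV-2 frameshift element and then GFP in the −1 frame, so GFP appears only after frameshifting.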

These compounds were tested on SARS-CoV-2 -1 PRF reporter mCherry-FSE-GFP(-1) (assay: percent effect, decrease of GFP/mCherry ratio (-1 PRF reporter) relative to controls; higher = stronger frameshift inhibition). Settings: 10 µM; 24 h; HEK293T.

| SMILES | percent effect |
| --- | --- |
| C[C@@H]1CN([C@H]2CC[C@](C#N)(c3ccc(F)cc3)CC2)CC[C@]1(C(=O)O)c1ccccc1 [levocabastine] | -2.07% |
| CCOC(=O)Nc1ccc(NCc2ccc(F)cc2)cc1N [retigabine] | 3.34% |
| CC[C@H]1[C@@H]2C[C@H]3[C@@H]4N(C)c5ccccc5[C@]45C[C@@H]([C@@H]2[C@H]5O)N3[C@@H]1O [Ajmaline] | -5.37% |
| C[C@H](N)Cc1ccccc1 [dexamfetamine] | 4.79% |
| CCOC(=O)C(c1c(O)c2ccccc2oc1=O)c1c(O)c2ccccc2oc1=O [ethyl biscoumacetate] | -0.961% |
| C=CCN1CC[C@]23c4c5ccc(O)c4O[C@H]2[C@@H](O)C=C[C@H]3[C@H]1C5 [nalorphine] | -5.92% |
| CCC1(CC)C(=O)NCC(C)C1=O (stereo not given) [methyprylon] | 0.92% |
| C=C[C@H]1CN2CC[C@H]1C[C@@H]2[C@@H](O)c1ccnc2ccccc12 | 0.526% |
| Cc1cc(C(C#N)c2ccc(Cl)cc2)c(Cl)cc1NC(=O)c1cc(I)cc(I)c1O (stereo not given) [closantel] | -1.05% |
| N[C@@H]1C[C@H]1c1ccccc1.N[C@H]1C[C@@H]1c1ccccc1 | -12.1% |
| CO[C@]12C[C@@H](COC(=O)c3cncc(Br)c3)CN(C)[C@@H]1Cc1cn(C)c3cccc2c13 [nicergoline] | 1.3% and 2.5% |
| O=C1CC[C@@]2(O)[C@H]3Cc4ccc(O)c5c4[C@@]2(CCN3CC2CC2)[C@H]1O5 [Naltrexone·HCl] | 3.82% |
| CC(C)c1c(CN(C)C(C)Cc2ccccc2)n(C)n(-c2ccccc2)c1=O (stereo not given) [famprofazone] | 3.71% |
| COc1cccc(C2(O)CCCCC2CN(C)C)c1 (stereo not given) [Tramadol] | -4.83% |
| CC[C@@H](CO)NC(=O)[C@@H]1C=C2c3cccc4c3c(cn4C)C[C@H]2N(C)C1 [Methysergide maleate] | -1.14% |
| CN1C[C@H](C(=O)N[C@]2(C)O[C@@]3(O)[C@@H]4CCCN4C(=O)[C@H](Cc4ccccc4)N3C2=O)C[C@@H]2c3cccc4[nH]cc(c34)C[C@H]21 | -1.25% |
| CN1C(=O)NC(=O)C(C)(C2=CCCCC2)C1=O (stereo not given) [hexobarbital] | -1.04% |
| CN1C(=O)CC(=O)N(c2ccccc2)c2cc(Cl)ccc21 [clobazam] | -8.58% |
| Cc1cccc([C@H](C)c2c[nH]cn2)c1C [dexmedetomidine] | -2.43% |
| O=[N+]([O-])c1ccc([As](=O)(O)O)cc1 [nitarsone] | -0.801% |

| SMILES | percent effect |
| --- | --- |
| CN1C[C@@H](NS(=O)(=O)N(C)C)C[C@@H]2c3cccc4c3c(cn4C)C[C@H]21 [mesulergine] | -2.89% |
| Cc1ccc2c(c1)C1CN(C)CCC1N2 (stereo not given) [dicarbine] | 1.02% |
| Nc1nc(N)nc(NC2CC2)n1 [cyromazine] | 0.316% |
| Cc1ncsc1CCCl [clomethiazole] | -11.7% |
| CCCCC(C#N)(Cn1cncn1)c1ccc(Cl)cc1 (stereo not given) [Myclobutanil] | -4.76% |
| O=C(O)C(=O)c1cn(Cc2ccccc2)c2ccc(-c3ccc(OC(F)(F)F)cc3)cc12 [tiplasinin] | -5.35% |
| CCOC(=O)c1cncn1[C@H](C)c1ccccc1 [etomidate] | -1.92% |
| C=CCN1CC[C@]23CCCC[C@H]2[C@H]1Cc1ccc(O)cc13 [levallorphan] | 1.33% |
| C#C[C@]1(O)CC[C@H]2[C@@H]3CCC4=C[C@@H](O)CC[C@@H]4[C@H]3CC[C@@]21C [etynodiol] | 2.82% |
| C[C@@H]1O[C@@H](O[C@@H]2C=C3CC[C@@H]4[C@H](CC[C@]5(C)[C@@H](c6ccc(=O)oc6)CC[C@]45O)[C@@]3(C)CC2)[C@H](O)[C@H](O)[C@H]1O [proscillaridin] | -14.7% |
| c1ccc2c(c1)sc1ccccc12 | -1.69% |
| CCC[C@@H]1CC2=CC(=O)CC[C@]2(C)[C@H]2CC[C@@]3(C)[C@@H](CC[C@@]3(O)CCC(=O)O)[C@H]12 [oxprenoate] | -0.553% |
| N.N.[Cl][Pt][Cl] | -18.7% |
| O=C(O)c1nn(Cc2ccc(Cl)cc2Cl)c2ccccc12 [lonidamine] | -2% |
| C[C@]12CCC(=NOCCN)C[C@@H]1C(=O)C[C@@H]1[C@@H]2CC[C@]2(C)C(=O)CC[C@@H]12 [istaroxime] | -9.71% |
| CCc1cc2c(s1)N(C)C(=O)CN=C2c1ccccc1Cl [clotiazepam] | 3.64% |
| CN1CCc2cc3c(cc2C1O)OCO3 (stereo not given) | -1.36% |
| CCN(CC)C(=O)N[C@H]1C=C2c3cccc4[nH]cc(c34)C[C@H]2N(C)C1 [lisuride] | -7.93% |
| C[C@@H]1CC[C@H]2[C@@H](C)C(=O)O[C@@H]3O[C@@]4(C)CC[C@@H]1[C@]32OO4 [Artemisinin] | -3.55% |
| CC1C=CC=CCCC=CC=CC=CC=CC(OC2OC(C)C(O)C(N)C2O)CC2OC(O)(CC(O)C(O)CCC(O)CC(O)CC(O)CC(=O)OC(C)C(C)C1O)CC(O)C2C(=O)O (stereo not given) [Nystatin] | -1.04% |

Fetched by structure from above (3):

| SMILES | percent effect |
| --- | --- |
| Cc1ccc2c(c1)C1CN(C)CCC1N2 (stereo not given) [dicarbine] | 1.02% |
| C#C[C@]1(O)CC[C@H]2[C@@H]3CCC4=C[C@@H](O)CC[C@@H]4[C@H]3CC[C@@]21C [etynodiol] | 2.82% |
| O=C(O)c1nn(Cc2ccc(Cl)cc2Cl)c2ccccc12 [lonidamine] | -2% |
